## Screening data, single-dose tests

Chains of the proteins cited; added tags and fusions are not shown. Residues count along the entry.
UniProt A4I591, 1-473: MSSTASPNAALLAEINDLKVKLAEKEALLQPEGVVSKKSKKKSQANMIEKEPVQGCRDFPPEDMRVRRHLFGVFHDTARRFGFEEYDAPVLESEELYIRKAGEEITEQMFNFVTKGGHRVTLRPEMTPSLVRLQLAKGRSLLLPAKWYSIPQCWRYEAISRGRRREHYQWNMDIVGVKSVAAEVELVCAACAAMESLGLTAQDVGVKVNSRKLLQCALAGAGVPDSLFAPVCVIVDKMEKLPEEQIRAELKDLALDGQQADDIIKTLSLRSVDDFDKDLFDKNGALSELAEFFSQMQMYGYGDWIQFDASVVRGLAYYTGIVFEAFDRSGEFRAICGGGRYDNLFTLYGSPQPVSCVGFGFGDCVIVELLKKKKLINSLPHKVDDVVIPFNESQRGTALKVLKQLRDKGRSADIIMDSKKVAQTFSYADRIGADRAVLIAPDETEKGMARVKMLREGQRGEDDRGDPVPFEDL

Measurements from “University of Dundee, Small-Polar-MMV Screening Library” (2021), ChEMBL document CHEMBL3988442.

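Histidine-tRNA ligase, Leishmania infantum (UniProt A4I591). Enzyme assay of histidyl-tRNA synthetase; the read-out is not stated. Concentration: 30 µM. Direction is inferred from retests: higher values go with stronger inhibition. The assay is labelled LdHisRS but filed under L. infantum. Size under these conditions: about 69,000 compounds, about 410 of them at 50% or above in at least one test.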

The filed quantity is “Percent Effect” (%). The record does not define 0% and 100%; most values in the screen are far below 50% and negative numbers occur (in some assays of this library far below -100). This is an unselected part of the compounds tested.

{"compound": "Cn1cc(CN2CCc3ncnc(N4CCOCC4)c3CC2)cn1", "effect": 26.32}
{"compound": "Cc1csc(N2CCCN(C(=O)CCN3CCCC3=O)CC2)n1", "effect": 13.7}
{"compound": "CCn1c(C)nc2cc(NC(=O)CC3CCCCO3)ccc21", "stereo": "configuration not stated", "effect": -79.71}
{"compound": "Cc1c(C(C)NC(=O)Nc2ccc(F)c(F)c2)cnn1C", "stereo": "configuration not stated", "effect": 17.95}
{"compound": "O=C(NC[C@H]1OC[C@@H](NC2COC2)[C@@H]1O)c1cccs1", "effect": 22.22}
{"compound": "O=C(O)CSc1nnc(-c2ccn[nH]2)n1-c1cccc(C(F)(F)F)c1", "effect": 13.11}
{"compound": "CCn1cc(CN(C)S(=O)(=O)c2ccc(C(C)C)cc2)cn1", "effect": 29.31}
{"compound": "CC(C)CCCNC(=O)Nc1ccc(Cl)c(C(N)=O)c1", "effect": 17.09}
{"compound": "C[C@@H]1CN(C2(C(=O)N(C)C)Cc3ccccc3C2)C[C@H](C)O1", "effect": 20.55}
{"compound": "c1cnc(N2CCN(CCn3ccnc3-c3ccncc3)CC2)nc1", "effect": 11.48}
{"compound": "Cc1ccnc(NCCNC(=O)Cc2c(C)[nH]c3c(C)ccc(C)c23)c1", "effect": 12.5}
{"compound": "CCOc1ccc(Cl)cc1C1CCCN1", "stereo": "configuration not stated", "effect": 17.14}
{"compound": "CC(C)(C)c1nc(CNC2CCCN(c3cccnn3)C2)no1", "stereo": "configuration not stated", "effect": 7.527}
{"compound": "CN(C)S(=O)(=O)N1C[C@@H]2CN(Cc3ccoc3)CCO[C@@H]2C1", "effect": 15.04}
{"compound": "O=C(Cc1cn2ccccc2n1)N1CCCC(n2ccnc2)C1", "stereo": "configuration not stated", "effect": 20.51}
{"compound": "CC(=O)N1CCCN(C(C)C(=O)Nc2ccnn2C(C)C)CC1", "stereo": "configuration not stated", "effect": 12.12}
{"compound": "O=C(NCc1csc(Br)c1)N1CCC(O)CC1", "effect": 14.68}
{"compound": "CCOC(C)c1noc(CN2CCN(CC3CCCC3)CC2)n1", "stereo": "configuration not stated", "effect": 9.091}
{"compound": "CCn1c(C)nnc1CN(C)C1CCN(Cc2cnc(C)cn2)C1", "stereo": "configuration not stated", "effect": 13.21}
{"compound": "CC(C#N)CSc1ccccc1NCC(=O)NC(=O)NC(C)(C)C", "stereo": "configuration not stated", "effect": 23.29}
{"compound": "CC(O)CN1CCN(C(=O)c2ccnc(N(C)C)c2)CC1", "stereo": "configuration not stated", "effect": 15.07}
{"compound": "NC(=O)NCC1CCCCN1C(=O)c1cccc(Cl)c1", "stereo": "configuration not stated", "effect": 13.39}
{"compound": "c1cnn(CC2CCCCN2c2ncnc3sccc23)c1", "stereo": "configuration not stated", "effect": 16.5}
{"compound": "COCC(=O)NCc1ccc(-c2ccccc2C(=O)O)cn1", "effect": 10.74}
{"compound": "CCc1nnc(SCC(=O)N2CCc3[nH]nc(C4CCC4)c3C2)o1", "effect": 13.7}
{"compound": "c1cncc(N2CCCn3nnc(CN4CCCCC4)c3C2)c1", "effect": 1.923}
{"compound": "Cc1nc(N2CCN(C)CC2)ncc1C(=O)N1CC[C@](C)(O)[C@H](C)C1", "effect": 3.125}
{"compound": "Cc1cnn(CC2CCCN2CC(=O)Nc2cc(C)nn2C)c1", "stereo": "configuration not stated", "effect": 9.375}
{"compound": "O=C(c1ccoc1)N(Cc1cccnc1)C1CC1", "effect": 11.96}
{"compound": "O=C(CCn1cnnn1)N1CCCC(CO)(CCCc2ccccc2)C1", "stereo": "configuration not stated", "effect": 9.804}
{"compound": "O=C(Cn1ccc2ccc(Br)cc21)NC[C@@H]1CCCN2CCCC[C@H]12", "effect": 0}
{"compound": "Cc1ccccc1CCC1CCCN(Cc2c(C)[nH]c(=O)[nH]c2=O)C1", "stereo": "configuration not stated", "effect": 19.67}
{"compound": "CCCN(Cc1nccn1C)C(=O)c1cnn[nH]1", "effect": 9.167}
{"compound": "O=C(Cc1cccs1)N1CCOCC1CO", "stereo": "configuration not stated", "effect": 10.43}
{"compound": "Fc1ccc(CN2CCC3(CC2)CCN(Cc2nccs2)CC3)cc1", "effect": 20}
{"compound": "COCc1nc(C(=O)NS(=O)(=O)c2ccc(C)cc2C)cs1", "effect": 8.511}
{"compound": "O=C(NC[C@H]1C[C@@H]2CCN1C[C@@H]2CN1CCCC1)c1ccco1", "effect": 22.97}
{"compound": "CCOC[C@@H]1CC[C@H]2[C@H](CCN2C(=O)c2ccncc2F)O1", "effect": 2.778}
{"compound": "COc1cccc(CNC(=O)CC2CSc3ncc(C)c(=O)n32)c1", "stereo": "configuration not stated", "effect": -0.9709}
{"compound": "Cc1cnc(N2CC(C(=O)N3CCOCC3)C3(CCOCC3)C2)nc1", "stereo": "configuration not stated", "effect": 16.24}
{"compound": "Cc1cc(N2CCN(CCO)CC2)nc(-c2ccncc2)n1", "effect": 20}
{"compound": "COc1cc(C(=O)NS(=O)(=O)c2cccc(C#N)c2)cc(OC)c1Br", "effect": 8.036}
{"compound": "CNc1cccc(C2CCCN(C(=O)c3cccnc3)C2)n1", "stereo": "configuration not stated", "effect": 16.49}
{"compound": "Cc1nc(C)n(CC2CCCCN2CC(=O)Nc2cc(C)on2)n1", "stereo": "configuration not stated", "effect": 8.772}
{"compound": "CCc1nnc(N2CCN(c3ccccc3)C(=O)C2)o1", "effect": 5}
{"compound": "Cc1ccc(CNC2CCN(CCc3ccncc3)CC2)s1", "effect": 19.23}
{"compound": "Cc1cnn(C2CCCN(C(=O)c3cn(-c4ccccc4)nc3C)C2)c1", "stereo": "configuration not stated", "effect": 8.621}
{"compound": "Cc1cc(C)n(CC2CN(CCOc3ccccc3F)CCO2)n1", "stereo": "configuration not stated", "effect": 6.897}
{"compound": "CCCS(=O)(=O)N1CCOC2(CCCN(c3ncc(F)cn3)C2)C1", "stereo": "configuration not stated", "effect": 18}
{"compound": "CN1CCN(C2CCN(CCOc3ccccc3F)CC2)C1=O", "effect": 10.43}
{"compound": "Cc1nn(C)c(C)c1C1CCCN1C(=O)c1cnc2n[nH]c(C)c2c1", "stereo": "configuration not stated", "effect": 18.46}
{"compound": "CC(C)(C)c1cc(NC(=O)C2CCCO2)n(-c2ccccn2)n1", "stereo": "configuration not stated", "effect": 19.4}
{"compound": "Cc1ccc(Cl)cc1N1CCC(CNC(=O)CCn2ccnn2)C1", "stereo": "configuration not stated", "effect": 4.255}
{"compound": "CC(C)c1cc(NCC2(N3CCOCC3)CCCCC2)ncn1", "effect": -13.33}

The first 5 entries again:

{"compound": "Cn1cc(CN2CCc3ncnc(N4CCOCC4)c3CC2)cn1", "effect": 26.32}
{"compound": "Cc1csc(N2CCCN(C(=O)CCN3CCCC3=O)CC2)n1", "effect": 13.7}
{"compound": "CCn1c(C)nc2cc(NC(=O)CC3CCCCO3)ccc21", "stereo": "configuration not stated", "effect": -79.71}
{"compound": "Cc1c(C(C)NC(=O)Nc2ccc(F)c(F)c2)cnn1C", "stereo": "configuration not stated", "effect": 17.95}
{"compound": "O=C(NC[C@H]1OC[C@@H](NC2COC2)[C@@H]1O)c1cccs1", "effect": 22.22}